Laboratory results as given in the supplement of paper PMC8728848.
The other results are listed elsewhere or left out.

How the values were obtained:
Assay in all cases: glycan array binding signal (z-score within array); higher = stronger binding
Settings in all cases: glycan notation: IUPAC condensed, linker removed
[1] = molecular target: GlcNAc(b1-2)[GlcNAc(b1-6)]Man(a1-6)[GlcNAc(b1-4)][GlcNAc(b1-2)Man(a1-3)]Man(b1-4)GlcNAc(b1-4)GlcNAc
Procedure, shortened: (§1)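 The binding signal is a Z-score computed within each array. Data were drawn from 3228 arrays in the Consortium for Functional Glycomics database, restricted to those with a known protein sequence. Scores were averaged over arrays of the same protein sequence at different concentrations or buffers, and over linkers, and negative values can be taken as non-binding.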

GlcNAc(b1-3)Fuc = molecular target: GlcNAc(b1-3)Fuc
Procedure, shortened: as §1

GlcNAc(b1-3)Gal = molecular target: GlcNAc(b1-3)Gal
Procedure, shortened: as §1

[2] = molecular target: GlcNAc(b1-3)Gal(b1-3)GalNAc
Procedure, shortened: as §1

GlcNAc(b1-3)Gal(b1-4)Glc = molecular target: GlcNAc(b1-3)Gal(b1-4)Glc
Procedure, shortened: as §1

[3] = molecular target: GlcNAc(b1-3)Gal(b1-4)GlcNAc
Procedure, shortened: as §1

[4] = molecular target: GlcNAc(b1-3)Gal(b1-4)GlcNAc(b1-2)Man(a1-3)[GlcNAc(b1-3)Gal(b1-4)GlcNAc(b1-2)Man(a1-6)]Man(b1-4)GlcNAc(b1-4)GlcNAc
Procedure, shortened: as §1

[5] = molecular target: GlcNAc(b1-3)Gal(b1-4)GlcNAc(b1-2)Man(a1-3)[GlcNAc(b1-3)Gal(b1-4)GlcNAc(b1-2)Man(a1-6)]Man(b1-4)GlcNAc(b1-4)[Fuc(a1-6)]GlcNAc
Procedure, shortened: as §1

[6] = molecular target: GlcNAc(b1-3)Gal(b1-4)GlcNAc(b1-2)[GlcNAc(b1-3)Gal(b1-4)GlcNAc(b1-6)]Man(a1-6)[GlcNAc(b1-3)Gal(b1-4)GlcNAc(b1-2)Man(a1-3)]Man(b1-4)GlcNAc(b1-4)GlcNAc
Procedure, shortened: as §1

[7] = molecular target: GlcNAc(b1-3)Gal(b1-4)GlcNAc(b1-3)Gal(b1-4)GlcNAc
Procedure, shortened: as §1

[8] = molecular target: GlcNAc(b1-3)Gal(b1-4)GlcNAc(b1-3)Gal(b1-4)GlcNAc(b1-2)Man(a1-3)[GlcNAc(b1-3)Gal(b1-4)GlcNAc(b1-3)Gal(b1-4)GlcNAc(b1-2)Man(a1-6)]Man(b1-4)GlcNAc(b1-4)GlcNAc
Procedure, shortened: as §1

[9] = molecular target: GlcNAc(b1-3)Gal(b1-4)GlcNAc(b1-3)Gal(b1-4)GlcNAc(b1-2)Man(a1-3)[GlcNAc(b1-3)Gal(b1-4)GlcNAc(b1-3)Gal(b1-4)GlcNAc(b1-2)Man(a1-6)]Man(b1-4)GlcNAc(b1-4)[Fuc(a1-6)]GlcNAc
Procedure, shortened: as §1

[10] = molecular target: GlcNAc(b1-3)Gal(b1-4)GlcNAc(b1-3)Gal(b1-4)GlcNAc(b1-2)[GlcNAc(b1-3)Gal(b1-4)GlcNAc(b1-3)Gal(b1-4)GlcNAc(b1-6)]Man(a1-6)[GlcNAc(b1-3)Gal(b1-4)GlcNAc(b1-3)Gal(b1-4)GlcNAc(b1-2)Man(a1-3)]Man(b1-4)GlcNAc(b1-4)[Fuc(a1-6)]GlcNAc
Procedure, shortened: as §1

[11] = molecular target: GlcNAc(b1-3)Gal(b1-4)GlcNAc(b1-3)Gal(b1-4)GlcNAc(b1-3)Gal(b1-4)GlcNAc(b1-2)Man(a1-3)[GlcNAc(b1-3)Gal(b1-4)GlcNAc(b1-3)Gal(b1-4)GlcNAc(b1-3)Gal(b1-4)GlcNAc(b1-2)Man(a1-6)]Man(b1-4)GlcNAc(b1-4)GlcNAc
Procedure, shortened: as §1

[12] = molecular target: GlcNAc(b1-3)Gal(b1-4)GlcNAc(b1-3)Gal(b1-4)GlcNAc(b1-3)Gal(b1-4)GlcNAc(b1-2)Man(a1-3)[GlcNAc(b1-3)Gal(b1-4)GlcNAc(b1-3)Gal(b1-4)GlcNAc(b1-3)Gal(b1-4)GlcNAc(b1-2)Man(a1-6)]Man(b1-4)GlcNAc(b1-4)[Fuc(a1-6)]GlcNAc
Procedure, shortened: as §1

[13] = molecular target: GlcNAc(b1-3)Gal(b1-4)GlcNAc(b1-3)Gal(b1-4)GlcNAc(b1-3)Gal(b1-4)GlcNAc(b1-2)[GlcNAc(b1-3)Gal(b1-4)GlcNAc(b1-3)Gal(b1-4)GlcNAc(b1-3)Gal(b1-4)GlcNAc(b1-6)]Man(a1-6)[GlcNAc(b1-3)Gal(b1-4)GlcNAc(b1-3)Gal(b1-4)GlcNAc(b1-3)Gal(b1-4)GlcNAc(b1-2)Man(a1-3)]Man(b1-4)GlcNAc(b1-4)[Fuc(a1-6)]GlcNAc
Procedure, shortened: as §1

[14] = molecular target: GlcNAc(b1-3)Gal(b1-4)GlcNAc(b1-3)Gal(b1-4)GlcNAc(b1-3)Gal(b1-4)GlcNAc(b1-3)Gal(b1-4)GlcNAc(b1-2)Man(a1-3)[GlcNAc(b1-3)Gal(b1-4)GlcNAc(b1-3)Gal(b1-4)GlcNAc(b1-3)Gal(b1-4)GlcNAc(b1-3)Gal(b1-4)GlcNAc(b1-2)Man(a1-6)]Man(b1-4)GlcNAc(b1-4)GlcNAc
Procedure, shortened: as §1

[15] = molecular target: GlcNAc(b1-3)Gal(b1-4)GlcNAc(b1-3)Gal(b1-4)GlcNAc(b1-3)Gal(b1-4)GlcNAc(b1-3)Gal(b1-4)GlcNAc(b1-2)Man(a1-3)[GlcNAc(b1-3)Gal(b1-4)GlcNAc(b1-3)Gal(b1-4)GlcNAc(b1-3)Gal(b1-4)GlcNAc(b1-3)Gal(b1-4)GlcNAc(b1-2)Man(a1-6)]Man(b1-4)GlcNAc(b1-4)[Fuc(a1-6)]GlcNAc
Procedure, shortened: as §1

[16] = molecular target: GlcNAc(b1-3)Gal(b1-4)GlcNAc(b1-3)Gal(b1-4)GlcNAc(b1-3)Gal(b1-4)GlcNAc(b1-3)Gal(b1-4)GlcNAc(b1-2)[GlcNAc(b1-3)Gal(b1-4)GlcNAc(b1-3)Gal(b1-4)GlcNAc(b1-3)Gal(b1-4)GlcNAc(b1-3)Gal(b1-4)GlcNAc(b1-6)]Man(a1-6)[GlcNAc(b1-3)Gal(b1-4)GlcNAc(b1-3)Gal(b1-4)GlcNAc(b1-3)Gal(b1-4)GlcNAc(b1-3)Gal(b1-4)GlcNAc(b1-2)Man(a1-3)]Man(b1-4)GlcNAc(b1-4)[Fuc(a1-6)]GlcNAc
Procedure, shortened: as §1

[17] = molecular target: GlcNAc(b1-3)Gal(b1-4)GlcNAc(b1-3)Gal(b1-4)GlcNAc(b1-3)GalNAc
Procedure, shortened: as §1

[18] = molecular target: GlcNAc(b1-3)Gal(b1-4)GlcNAc(b1-3)GalNAc
Procedure, shortened: as §1

[19] = molecular target: GlcNAc(b1-3)Gal(b1-4)GlcNAc(b1-3)[GlcNAc(b1-3)Gal(b1-4)GlcNAc(b1-3)]GalNAc
Procedure, shortened: as §1

[20] = molecular target: GlcNAc(b1-3)Gal(b1-4)GlcNAc(b1-6)[Gal(b1-3)]GalNAc
Procedure, shortened: as §1

[21] = molecular target: GlcNAc(b1-3)Gal(b1-4)GlcNAc(b1-6)[GlcNAc(b1-3)Gal(b1-3)]GalNAc
Procedure, shortened: as §1

[22] = molecular target: GlcNAc(b1-3)Gal(b1-4)GlcNAc(b1-6)[GlcNAc(b1-3)]Gal(b1-4)GlcNAc
Procedure, shortened: as §1

GlcNAc(b1-3)GalNAc = molecular target: GlcNAc(b1-3)GalNAc
Procedure, shortened: as §1

GlcNAc(b1-3)Man = molecular target: GlcNAc(b1-3)Man
Procedure, shortened: as §1

[23] = molecular target: GlcNAc(b1-3)[GlcNAc(b1-4)][GlcNAc(b1-6)]GlcNAc
Procedure, shortened: as §1

[24] = molecular target: GlcNAc(b1-3)[GlcNAc(b1-6)]Gal(b1-4)GlcNAc
Procedure, shortened: as §1

[25] = molecular target: GlcNAc(b1-3)[GlcNAc(b1-6)]GalNAc
Procedure, shortened: as §1

[26] = molecular target: GlcNAc(b1-3)[GlcNAc(b1-6)]GlcNAc(b1-4)GlcNAc
Procedure, shortened: as §1

[27] = molecular target: GlcNAc(b1-4)Gal(b1-4)GlcNAc
Procedure, shortened: as §1

GlcNAc(b1-4)GlcNAc = molecular target: GlcNAc(b1-4)GlcNAc
Procedure, shortened: as §1

[28] = molecular target: GlcNAc(b1-4)GlcNAc(b1-4)GlcNAc
Procedure, shortened: as §1

[29] = molecular target: GlcNAc(b1-4)GlcNAc(b1-4)GlcNAc(b1-4)GlcNAc(b1-4)GlcNAc
Procedure, shortened: as §1

[30] = molecular target: GlcNAc(b1-4)GlcNAc(b1-4)GlcNAc(b1-4)GlcNAc(b1-4)GlcNAc(b1-4)GlcNAc
Procedure, shortened: as §1

[31] = molecular target: GlcNAc(b1-4)[GlcNAc(b1-6)]GalNAc
Procedure, shortened: as §1

B1: CRT-1 (Homo sapiens), P27797 (protein)
chain: MLLSVPLLLGLLGLAVAEPAVYFKEQFLDGDGWTSRWIESKHKSDFGKFVLSSGKFYGDEEKDKGLQTSQDARFYALSASFEPFSNKGQTLVVQFTVKHEQNIDCGGGYVKLFPNSLDQTDMHGDSEYNIMFGPDICGPGTKKVHVIFNYKGKNVLINKDIRCKDDEFTHLYTLIVRPDNTYEVKIDNSQVESGSLEDDWDFLPPKKIKDPDASKPEDWDERAKIDDPTDSKPEDWDKPEHIPDPDAKKPEDWDEEMDGEWEPPVIQNPEYKGEWKPRQIDNPDYKGTWIHPEIDNPEYSPDPSIYAYDNFGVLGLDLWQVKSGTIFDNFLITNDEAYAEEFGNETWGVTKAAEKQMKDKQDEEQRLKEEEEDKKRKEEEEAEDKEDDEDKDEDEEDEEDKEEDEEEDVPGQAKDEL
glycan array binding signal (z-score) [1]: -0.167 | glycan array binding signal (z-score) (GlcNAc(b1-3)Fuc): -0.292 | glycan array binding signal (z-score) (GlcNAc(b1-3)Gal): -0.533 | glycan array binding signal (z-score) [2]: -0.052 | glycan array binding signal (z-score) (GlcNAc(b1-3)Gal(b1-4)Glc): 0.118 | glycan array binding signal (z-score) [3]: -0.228 | glycan array binding signal (z-score) [4]: -0.076 | glycan array binding signal (z-score) [5]: 0.131 | glycan array binding signal (z-score) [6]: 2.14 | glycan array binding signal (z-score) [7]: -1 | glycan array binding signal (z-score) [8]: 1.29 | glycan array binding signal (z-score) [9]: 1.91 | glycan array binding signal (z-score) [10]: 0.832 | glycan array binding signal (z-score) [11]: 0.141 | glycan array binding signal (z-score) [12]: 0.473 | glycan array binding signal (z-score) [13]: 1.07 | glycan array binding signal (z-score) [14]: 0.27 | glycan array binding signal (z-score) [15]: 0.614 | glycan array binding signal (z-score) [16]: 1.18 | glycan array binding signal (z-score) [17]: -0.449 | glycan array binding signal (z-score) [18]: -0.625 | glycan array binding signal (z-score) [19]: -0.192 | glycan array binding signal (z-score) [20]: -1.28 | glycan array binding signal (z-score) [21]: -0.268 | glycan array binding signal (z-score) [22]: 0.011 | glycan array binding signal (z-score) (GlcNAc(b1-3)GalNAc): -0.443 | glycan array binding signal (z-score) (GlcNAc(b1-3)Man): 0.915 | glycan array binding signal (z-score) [23]: 0.03 | glycan array binding signal (z-score) [24]: -0.199 | glycan array binding signal (z-score) [25]: -0.089 | glycan array binding signal (z-score) [26]: 0.352 | glycan array binding signal (z-score) [27]: -0.496 | glycan array binding signal (z-score) (GlcNAc(b1-4)GlcNAc): -0.099 | glycan array binding signal (z-score) [28]: -0.088 | glycan array binding signal (z-score) [29]: -0.102 | glycan array binding signal (z-score) [30]: -0.409 | glycan array binding signal (z-score) [31]: 0.752
